Source: ChEMBL document CHEMBL3988442, “University of Dundee, Small-Polar-MMV Screening Library” (2021).

The chains behind the UniProt entries cited, without tags or fusion partners.
UniProt E9BF75, entry or part of it: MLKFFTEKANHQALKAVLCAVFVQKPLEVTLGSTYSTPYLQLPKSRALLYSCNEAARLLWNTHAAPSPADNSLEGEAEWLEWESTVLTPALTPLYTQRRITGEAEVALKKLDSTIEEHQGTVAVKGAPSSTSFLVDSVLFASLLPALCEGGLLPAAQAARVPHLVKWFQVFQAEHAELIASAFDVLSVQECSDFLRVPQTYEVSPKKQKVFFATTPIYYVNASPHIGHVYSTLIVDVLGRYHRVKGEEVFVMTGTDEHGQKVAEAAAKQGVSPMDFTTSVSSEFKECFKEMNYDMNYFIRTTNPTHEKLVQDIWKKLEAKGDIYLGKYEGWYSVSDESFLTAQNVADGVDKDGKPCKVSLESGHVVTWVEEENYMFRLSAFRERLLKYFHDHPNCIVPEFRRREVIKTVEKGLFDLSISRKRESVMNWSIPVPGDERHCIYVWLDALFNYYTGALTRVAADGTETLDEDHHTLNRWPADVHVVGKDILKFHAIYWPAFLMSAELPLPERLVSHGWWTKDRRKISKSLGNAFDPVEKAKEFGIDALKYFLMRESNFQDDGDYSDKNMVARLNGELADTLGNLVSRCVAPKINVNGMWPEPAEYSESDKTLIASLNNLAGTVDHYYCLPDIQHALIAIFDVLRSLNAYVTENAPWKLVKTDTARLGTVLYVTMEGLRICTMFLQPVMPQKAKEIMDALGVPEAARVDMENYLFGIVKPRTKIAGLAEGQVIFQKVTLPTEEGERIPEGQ

Results are percentages, as filed. The record does not define 0% and 100%; most values in the screen are far below 50% and negative numbers occur (in some assays of this library far below -100). Compounds were drawn at random from those tested, without regard to their results.

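Methionyl-tRNA synthetase (putative), Leishmania donovani (UniProt E9BF75). Primary screen of methionyl-tRNA synthetase; the read-out is not stated. The test concentration is not given. The values are filed as inhibition. Size under these conditions: about 68,000 compounds, about 24 of them at 50% or above in at least one test.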

{"compound": "CCn1ccnc1CN1CCCN(C(=O)Cc2ccccc2C)CC1", "inhibition": 3.825}
{"compound": "Cc1cccc(C(C(=O)N(C)Cc2cc(C)no2)N(C)C)c1", "stereo": "stereo not given", "inhibition": 11.17}
{"compound": "CCc1ccc(C(=O)N2CCCC(CNS(C)(=O)=O)C2)o1", "stereo": "stereo not given", "inhibition": 15.03}
{"compound": "O=C(NCC1CCCCC1)N1C[C@H]2C[C@H](C(=O)N3CCCC3)[C@@H](C1)O2", "inhibition": 19.2}
{"compound": "CC(=O)Nc1cc(C2CC2)nn1-c1nc(C)c(C)c(=O)[nH]1", "inhibition": 4.587}
{"compound": "O=C(NCC(F)(F)C(F)F)c1cccnc1", "inhibition": 7.99}
{"compound": "O=C(C[C@@H]1COC[C@H]2CN(Cc3cccnc3)C[C@@H]12)N1CCCC1", "inhibition": -3.681}
{"compound": "Cc1nc(C)n(CC2CCCN2Cc2nc3ccccc3s2)n1", "stereo": "stereo not given", "inhibition": 18.05}
{"compound": "COc1cc(N2CC[C@@H]3O[C@@H](c4ccnc(C)n4)C[C@H]3C2)ncn1", "inhibition": 8.711}
{"compound": "CCc1cc(N2CCC(NCCc3ccccc3F)CC2)nc(C)n1", "inhibition": 17.96}
{"compound": "CCc1ccc(C(=O)N2CC[C@](C)(O)[C@H](C)C2)[nH]1", "inhibition": 13.07}
{"compound": "Cc1c(S(=O)(=O)N2CCCC2c2nnc(-c3ccsc3)o2)cnn1C", "stereo": "stereo not given", "inhibition": 11.84}
{"compound": "O=C(CCC1CCCO1)NCCCO", "stereo": "stereo not given", "inhibition": 8.815}
{"compound": "Cc1ccsc1CNC(=O)N(C)Cc1cnn(C)c1", "inhibition": 9.841}
{"compound": "CC(Cc1cccs1)NC(=O)CCn1cccn1", "stereo": "stereo not given", "inhibition": 22.83}
{"compound": "Cn1c2c(c(=O)n1C)CN(C(=O)c1cnccn1)CCC2", "inhibition": 14.08}
{"compound": "Cc1ccnc2c1NC(=O)CN2C(=O)CCc1ccccc1", "inhibition": 16.11}
{"compound": "CCN(CC)C(=O)CC[C@@H]1CNC(=O)[C@@H]2C[C@H](NC(=O)C3CC3)CN12", "inhibition": 9.89}
{"compound": "Cn1ccc(CN2CCC(CN3CCOCC3)CC2)cc1=O", "inhibition": 15.3}
{"compound": "COCCN1CCC2(CC1)CC(NC(=O)CC1CC1)c1ccccc1O2", "stereo": "stereo not given", "inhibition": 14.57}
{"compound": "Cc1cc(C(=O)N2CCC3(CCNCC3)CC2)c2cccc(C)c2n1", "inhibition": 9.172}
{"compound": "COc1cccc2c1N(CC(=O)Nc1ccc(Cl)cn1)CCC2", "inhibition": 14.18}
{"compound": "CC(C)n1cnnc1CN(C)C(=O)CCn1cnc2ccccc2c1=O", "inhibition": 15.26}
{"compound": "Cc1cc(N2CCc3cncnc3C2)n2nc(C(F)(F)F)nc2n1", "inhibition": 21.56}
{"compound": "CCCC(O)CN1CC(C)(C)CN(C(=O)CCc2ccccc2)CC1=O", "stereo": "stereo not given", "inhibition": 4.11}
{"compound": "CCOc1ccc(NCC(=O)NCC(=O)N2CCCC2)c(C(F)(F)F)c1", "inhibition": 12.66}
{"compound": "O=C(CCn1cc(Cl)cn1)Nc1nncs1", "inhibition": 9.774}
{"compound": "Cc1nnc(NCCC(=O)N(C)Cc2ccccc2)c(C#N)c1C", "inhibition": 1.344}
{"compound": "Cc1ccc(CN(C(=O)C(C)S(C)(=O)=O)C2CC2)cc1C", "stereo": "stereo not given", "inhibition": 19.5}
{"compound": "O=C1[C@H]2CN(CC3CCOCC3)C[C@H]2CN1Cc1cccc(F)c1", "inhibition": 3.093}
{"compound": "CC(C)COCC(NC(=O)c1cc[nH]n1)c1ccco1", "stereo": "stereo not given", "inhibition": 15.69}
{"compound": "O=C1CN(C(=O)CN(CC2CCC2)CC(F)(F)F)CCN1", "inhibition": 11.04}
{"compound": "Cc1cccc(CN2C(=O)CCC23CCN(c2ccccn2)CC3)n1", "inhibition": 10.58}
{"compound": "COc1cc(C(=O)N2CCC(O)(CN3CCOCC3)C(C)(C)C2)ccn1", "stereo": "stereo not given", "inhibition": 11.96}
{"compound": "CCc1ccc(NC(=O)N2C[C@H]3CC[C@@]4(N=C(C)N(C)C4=O)[C@H]3C2)cc1", "inhibition": 6.587}
{"compound": "O=C(NC1CC(F)(F)C1)[C@]12COC[C@H]1CN(Cc1cccnc1)C2", "inhibition": 17.37}
{"compound": "COc1cccc(OC)c1OCCn1c(C)c(C)oc1=O", "inhibition": 9.375}
{"compound": "Cc1cc(NC(=O)CN2CCc3cncnc3C2)no1", "inhibition": 9.036}
{"compound": "CN(CCCc1cnn(C)c1)C(=O)C1CCN(C(=O)C2CCC2)CC1", "inhibition": 9.622}
{"compound": "Cc1cnn(CC(C)NCc2ccc(C#N)cc2F)c1", "stereo": "stereo not given", "inhibition": 13.36}
{"compound": "CC(C)N1Cc2c(C(=O)N3CCOCC3)nn(C)c2C1", "inhibition": 10.44}
{"compound": "CC(C)CCn1nc(CNc2ccc(Br)cc2)nc1O", "inhibition": 10.2}
{"compound": "CNS(=O)(=O)c1cccc(C(C)NCc2cccc(OC)c2)c1", "stereo": "stereo not given", "inhibition": 0}
{"compound": "COc1ccc(N2CCN(C(=O)CCCc3cn[nH]c3)CC2=O)cc1", "inhibition": 9.422}
{"compound": "Cc1cc(CN2CCN(CC(O)c3cccc(F)c3)CC2)no1", "stereo": "stereo not given", "inhibition": 23.94}

Repeated from the top, 4 entries:

Compound	inhibition
CCn1ccnc1CN1CCCN(C(=O)Cc2ccccc2C)CC1	3.825
Cc1cccc(C(C(=O)N(C)Cc2cc(C)no2)N(C)C)c1 (stereo not given)	11.17
CCc1ccc(C(=O)N2CCCC(CNS(C)(=O)=O)C2)o1 (stereo not given)	15.03
O=C(NCC1CCCCC1)N1C[C@H]2C[C@H](C(=O)N3CCCC3)[C@@H](C1)O2	19.2